These are yes or no findings as the source states them, for the method shown. In cells and extracts the contact can be indirect. Some entries that bind do so weakly or less than the wild type.
Target: T1, DNAJB12 (human (endogenous in HepG2.2.15 and HepG2)) (UniProt Q9NXW2)
T1 sequence: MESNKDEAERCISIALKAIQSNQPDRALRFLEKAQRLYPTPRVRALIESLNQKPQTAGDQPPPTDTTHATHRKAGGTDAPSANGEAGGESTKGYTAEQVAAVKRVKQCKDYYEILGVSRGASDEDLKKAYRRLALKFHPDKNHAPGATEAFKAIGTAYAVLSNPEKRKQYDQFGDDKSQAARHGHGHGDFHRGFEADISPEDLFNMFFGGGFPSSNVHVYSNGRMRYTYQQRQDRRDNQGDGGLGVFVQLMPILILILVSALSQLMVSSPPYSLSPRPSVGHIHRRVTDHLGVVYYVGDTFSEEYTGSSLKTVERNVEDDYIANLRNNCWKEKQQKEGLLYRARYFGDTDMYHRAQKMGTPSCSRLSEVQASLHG
Assay: pull-down; HepG2.2.15 lysates (shCtrl or shDNAJB12; parental or expressing DNAJB12-ΔDUF) incubated with 50 nM biotinylated REP 2139 (ligand of DNAJB12) and streptavidin beads or protein G beads with anti-biotin antibody, overnight at 4°C; non-biotinylated REP 2139 as negative control; western blot

binding: binds
B1: DNAJB12-ΔDUF (domain or fragment, UniProt Q9NXW2 1-269)
chain: MESNKDEAERCISIALKAIQSNQPDRALRFLEKAQRLYPTPRVRALIESLNQKPQTAGDQPPPTDTTHATHRKAGGTDAPSANGEAGGESTKGYTAEQVAAVKRVKQCKDYYEILGVSRGASDEDLKKAYRRLALKFHPDKNHAPGATEAFKAIGTAYAVLSNPEKRKQYDQFGDDKSQAARHGHGHGDFHRGFEADISPEDLFNMFFGGGFPSSNVHVYSNGRMRYTYQQRQDRRDNQGDGGLGVFVQLMPILILILVSALSQLMVSS

— PMC12890720
